Assay results as given in patent US20070298413A1, “Topoisomerase Modulators Assays” (AstraZeneca AB, priority 2003, published 2007).
At least one structure is not confirmed: it was looked up by name or label, or the drawing left a doubt.

Tested on: bacteria that carry a DNA relaxation-stimulated lacZ gene on a plasmid (pRAS101, 19.4, pSB2.his)
Assay: plate lawn technique on X-Gal medium (blue ring)
Type: cell-based, E. coli
Conditions: spotted onto lawn of bacteria, overnight growth at 37° C.; clones pRAS101, 19.4 and pSB2.his similar
Excerpt: The principle of the screen is based on the observation that if known gyrase inhibitors are spotted onto X-Gal medium containing bacteria that carry a DNA relaxation-stimulated lacZ gene on a plasmid, clear zones of inhibition surrounded by a blue ring are formed after overnight growth. The blue ring presumably forms at the drug concentration where optimum relaxation-stimulation of the reporter gene has occurred before the cells are killed.
The following three clones were used: a) clone pRAS101 containing the gyrA promoter linked to the β-galactosidase gene; b) clone 19.4 (found by method described in section 3.3); and c) clone pSB2.his containing the hisD promoter linked to the β-galactosidase gene.
Cultures were grown overnight and diluted 1:1000 in (melted) L-agar cooled to 45° C. containing 50 μg/mL Ap and 60 μg/mL X-Gal. The medium was poured into 15×150 mm petri dishes immediately. After it had solidified, known gyrase inhibitors were applied automatically onto the solid agar surface using a Tomtec Quadra 96 machine as follows: 20 μg nalidixic acid (Nx), 100 μg novobiocin (Novo), 2 μg ciprofloxacin (Cipro), 10 μg coumermycin (Cou), 2 μg cinoxacin (Cinox), 2 μg pefloxacin (Pef), 2 μg fleroxacin (Fle), 2 μg flumequine (Flu) and 2 μg norfloxacin (Nor). […]

CN(C)[C@@H]1C(O)=C(C(N)=O)C(=O)[C@@]2(O)C(O)=C3C(=O)c4c(O)cccc4[C@@](C)(O)[C@H]3C[C@@H]12 [tetracycline]
stimulation of the DNA relaxation-stimulated reporter gene (blue ring): little to no stimulation
